Experimental data from PMC5003356.

The chains behind the UniProt entries cited, without tags or fusion partners. Where a name states a change or a piece, a line headed by the entry shows the natural chain unless it says otherwise. Residues count along the entry.
UniProt P09405, 300-652: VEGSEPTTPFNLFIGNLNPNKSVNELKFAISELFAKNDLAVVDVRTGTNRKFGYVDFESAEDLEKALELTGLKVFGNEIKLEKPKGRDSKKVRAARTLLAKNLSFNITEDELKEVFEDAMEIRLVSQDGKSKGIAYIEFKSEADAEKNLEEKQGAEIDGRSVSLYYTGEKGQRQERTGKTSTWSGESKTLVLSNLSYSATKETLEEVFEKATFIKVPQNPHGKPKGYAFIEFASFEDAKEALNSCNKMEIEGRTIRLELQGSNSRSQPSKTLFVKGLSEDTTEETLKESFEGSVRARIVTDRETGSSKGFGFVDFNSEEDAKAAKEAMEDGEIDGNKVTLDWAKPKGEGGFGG
UniProt Q15233: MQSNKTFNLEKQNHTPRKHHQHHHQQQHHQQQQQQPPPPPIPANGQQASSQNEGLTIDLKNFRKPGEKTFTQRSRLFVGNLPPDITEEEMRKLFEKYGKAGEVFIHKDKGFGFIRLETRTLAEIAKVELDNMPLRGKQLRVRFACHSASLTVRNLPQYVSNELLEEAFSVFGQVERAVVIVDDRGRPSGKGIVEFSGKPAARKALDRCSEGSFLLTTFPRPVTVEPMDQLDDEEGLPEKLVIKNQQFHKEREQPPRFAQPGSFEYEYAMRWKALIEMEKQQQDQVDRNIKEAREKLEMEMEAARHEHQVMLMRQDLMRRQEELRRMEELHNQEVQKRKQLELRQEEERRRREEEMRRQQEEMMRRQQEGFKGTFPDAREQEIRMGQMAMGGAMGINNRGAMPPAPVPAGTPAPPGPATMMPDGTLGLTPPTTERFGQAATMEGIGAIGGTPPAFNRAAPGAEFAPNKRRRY

Assays:
LRPPRC-NLuc = LRPPRC-NLuc (UniProt P42704); test: competition BRET; settings: 3-10-3 cEt gap-mer; BRET: 1X binding buffer (0.1 M potassium acetate, 20 mM Tris pH 7.5, 1 mM EDTA, 0.01% NP-40), room temperature, 15 min; protein in a lysate after overexpression; protein details: C-terminal NLuc; synthetic backbone
[1] = target: NCL (RBD 1-4) NLuc fusion (UniProt P09405); test: competition BRET; settings: 3-10-3 cEt gap-mer; BRET: 1X binding buffer (0.1 M potassium acetate, 20 mM Tris pH 7.5, 1 mM EDTA, 0.01% NP-40), room temperature, 15 min; protein in a lysate after overexpression; protein details: NLuc (N or C); synthetic backbone
[2] = target: P54nrb NLuc fusion (Homo sapiens) (UniProt Q15233); test: competition BRET; settings: 3-10-3 cEt gap-mer; BRET: 1X binding buffer (0.1 M potassium acetate, 20 mM Tris pH 7.5, 1 mM EDTA, 0.01% NP-40), room temperature, 15 min; protein in a lysate after overexpression; protein details: NLuc (N or C); synthetic backbone
RNase H1 NLuc fusion = target: T1, RNase H1 NLuc fusion (UniProt O60930); test: competition BRET; settings: 3-10-3 cEt gap-mer; BRET: 1X binding buffer (0.1 M potassium acetate, 20 mM Tris pH 7.5, 1 mM EDTA, 0.01% NP-40), room temperature, 15 min; protein in a lysate after overexpression; protein details: NLuc (N or C); synthetic backbone
T1 sequence (looked up, limits assumed): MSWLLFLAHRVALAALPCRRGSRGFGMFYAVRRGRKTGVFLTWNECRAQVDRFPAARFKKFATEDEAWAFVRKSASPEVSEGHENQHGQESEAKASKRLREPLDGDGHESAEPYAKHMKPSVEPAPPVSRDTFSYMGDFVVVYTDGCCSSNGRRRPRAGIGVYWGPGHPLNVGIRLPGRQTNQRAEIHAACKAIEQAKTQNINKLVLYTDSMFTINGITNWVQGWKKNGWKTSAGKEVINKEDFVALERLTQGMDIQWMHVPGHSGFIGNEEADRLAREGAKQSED

Staufen1 NLuc fusion = target: T2, Staufen1 NLuc fusion (UniProt O95793); test: BRET; settings: BRET: 1X binding buffer (0.1 M potassium acetate, 20 mM Tris pH 7.5, 1 mM EDTA, 0.01% NP-40), room temperature, 15 min
T2 sequence (looked up, limits assumed): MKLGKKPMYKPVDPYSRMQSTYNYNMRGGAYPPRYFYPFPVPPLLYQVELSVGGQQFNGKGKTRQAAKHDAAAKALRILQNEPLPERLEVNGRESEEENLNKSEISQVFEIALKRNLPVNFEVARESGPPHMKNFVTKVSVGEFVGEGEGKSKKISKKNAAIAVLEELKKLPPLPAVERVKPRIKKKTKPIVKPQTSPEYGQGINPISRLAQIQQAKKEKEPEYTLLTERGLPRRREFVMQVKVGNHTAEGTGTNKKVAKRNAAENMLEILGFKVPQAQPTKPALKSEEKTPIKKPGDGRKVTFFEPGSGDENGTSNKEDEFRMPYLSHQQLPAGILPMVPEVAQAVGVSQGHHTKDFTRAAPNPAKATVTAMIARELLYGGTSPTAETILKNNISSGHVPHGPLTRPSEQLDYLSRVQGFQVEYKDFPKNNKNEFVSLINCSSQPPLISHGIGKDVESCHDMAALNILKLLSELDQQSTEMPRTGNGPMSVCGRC

| Sequence | Kd (LRPPRC-NLuc) | Kd [1] | Kd [2] | Kd (RNase H1 NLuc fusion) | binding result (Staufen1 NLuc fusion; range over ssRNA, ssDNA and RNA/DNA, protein in a lysate after overexpression, label: 3' Alexa Fluor 594, single-stranded DNA) | Kd (Staufen1 NLuc fusion; protein in a lysate after …, label: 3' Alexa Fluor 594 on strand 1) |
| --- | --- | --- | --- | --- | --- | --- |
| TCAGTCATGGTATAAA [661115] | 0.00018 µM | 0.00301 µM | 0.0152 µM | 0.0511 µM | – | – |
| CTGCTAGCCTCTGGATTTGA [STAU1 ssDNA] | – | – | – | – | binds more weakly | – |
| TGAGAAGATCTCCCGG [661103] | 0.00019 µM | 0.00225 µM | 0.0157 µM | 0.0254 µM | – | – |
| CCACTGCGCAGGCCAG [660935] | 0.00144 µM | 0.0123 µM | 0.0748 µM | 0.119 µM | – | – |
| CUGCUAGCCUCUGGAUUUGA / UAUGGGGUCAAAUCCAGAGGCUAGCAGAAGGGAGUAACUA [STAU1 RNA/RNA] | – | – | – | – | – | 0.003 µM |

The exact form of at least one protein or probe is not confirmed. Results from cells or extracts need not show a direct contact. For some assays here: The comparison behind a weaker result is the experiment's own reference, which may not be listed here. For some assays here: Protein sequences can lack the tags named with them.
